US20260131007A1, “Mannose 6-Phosphate Receptor Binding Compounds for the Degradation of Extracellular Proteins” (Avilar Therapeutics, Inc., priority 2023, published 2026)
pEC50: −log10 of the molar value. For at least one compound, name, drawing or mass did not settle the structure.

Target: T1, hIGF-IIR and IgG1 (ternary complex) (Homo sapiens, UniProt P01857+P11717)
T1 construct: purchased R&D Systems 6418-GR
Assay: HTRF-based ternary complex formation assay for hIGF-IIR targeting Extracellular Protein Degraders
Type: binding
Details: biotinylated IgG1 and His-tagged hIGF-IIR, 60 nM each; read-out: TCF (HTRF) EC50
Text: The ternary complex formation assay is designed to identify and determine the potency of Extracellular Protein Degrader molecules which can induce the formation of ternary complex between the Extracellular Protein Degrader hIGF-IIR. Titrating Extracellular Protein Degrader to fixed amount of hIGF-IIR results in a bell-shaped curve (except molecules whose binary complex affinity between Extracellular Protein Degrader and hIGF-IIR). The peak mean represents Extracellular Protein Degrader concentration at which maximum ternary complex is formed. Too much or too little Extracellular Protein Degrader leads to decreased ternary complex formation due to formation of binary complex (Hook effect). Dose response of Extracellular Protein Degrader compounds (16-point 3-fold dilution series, 100X) were prepared by Echo Acoustic Liquid Handler (Beckman Coulter Life Sciences) using 384-well LDV microplate. […] The plate was gently spun on a centrifuge then placed on an EnVision plate reader (Perkin Elmer, EnVision 2104) to read fluorescence ratio of 665 nm/615 nm. Data were analyzed by fitting with Bell-shaped non-linear regression model using GraphPad Prism (GraphPad Software, LLC; version 9.4.1). Mean fluorescence intensity is graphed versus compound concentration and the EC50 for TCF is calculated from the inflection point of the curve (GraphPad).

For `CC(C)C[C@H]1NC(=O)[C@H](Cc2c[nH]cn2)NC(=O)[C@H](Cc2c[nH]c3ccccc23)NC(=O)[C@H](C)NC(=O)[C@@H]2CSSC[C@H](NC(=O)[C@H](Cc3c[nH]c4ccccc34)NC(=O)[C@@H](C(C)C)NC(=O)[C@@H](CC(C)C)NC(=O)[C@H](CCC(=O)O)NC(=O)CNC1=O)C(=O)N[C@H]([C@@H](C)O)C(=O)N1CCC[C@@H]1C(=O)N1C[C@@H](NC(=O)CCOCCOCCOCCOCCOCCOCCOCCOCCn3cc(CCCCNC(=O)Nc4ccc5c(c4)Cc4cc(O[C@H]6O[C@H](CCP(=O)(O)O)[C@@H](O)[C@H](O)[C@@H]6O)ccc4-5)nn3)C[C@H]1C(=O)N[C@@H](CC(=O)O)C(=O)N2` [Compound 12], the pEC50 was > 7.30.
